Assay results as given in publication PMC8187792.
No constants are given. Whether binding was seen depends on the method and setting. In cells and extracts the contact can be indirect. Here binding means that the protein was enriched with, or labelled near, the bait; the list need not be complete. Sequences can lack the tags named with a protein.

The chains behind the UniProt entries cited, without tags or fusion partners.
UniProt Q60737: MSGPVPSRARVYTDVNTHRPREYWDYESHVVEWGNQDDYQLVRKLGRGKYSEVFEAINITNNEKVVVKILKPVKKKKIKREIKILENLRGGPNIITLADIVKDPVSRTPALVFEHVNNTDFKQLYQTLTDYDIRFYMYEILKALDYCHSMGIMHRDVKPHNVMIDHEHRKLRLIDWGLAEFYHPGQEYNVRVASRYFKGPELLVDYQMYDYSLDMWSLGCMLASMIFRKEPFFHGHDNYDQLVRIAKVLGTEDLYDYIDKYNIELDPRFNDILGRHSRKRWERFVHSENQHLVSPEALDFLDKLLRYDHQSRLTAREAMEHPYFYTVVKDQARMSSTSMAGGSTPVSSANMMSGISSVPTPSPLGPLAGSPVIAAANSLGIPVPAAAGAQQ
UniProt P67871: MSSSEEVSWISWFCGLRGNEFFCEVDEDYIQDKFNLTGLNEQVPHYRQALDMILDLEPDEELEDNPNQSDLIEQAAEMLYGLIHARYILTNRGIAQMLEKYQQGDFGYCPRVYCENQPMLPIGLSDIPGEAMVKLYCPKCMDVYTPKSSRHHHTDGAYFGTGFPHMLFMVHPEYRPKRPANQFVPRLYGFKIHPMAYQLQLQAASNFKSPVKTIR
UniProt Q60598: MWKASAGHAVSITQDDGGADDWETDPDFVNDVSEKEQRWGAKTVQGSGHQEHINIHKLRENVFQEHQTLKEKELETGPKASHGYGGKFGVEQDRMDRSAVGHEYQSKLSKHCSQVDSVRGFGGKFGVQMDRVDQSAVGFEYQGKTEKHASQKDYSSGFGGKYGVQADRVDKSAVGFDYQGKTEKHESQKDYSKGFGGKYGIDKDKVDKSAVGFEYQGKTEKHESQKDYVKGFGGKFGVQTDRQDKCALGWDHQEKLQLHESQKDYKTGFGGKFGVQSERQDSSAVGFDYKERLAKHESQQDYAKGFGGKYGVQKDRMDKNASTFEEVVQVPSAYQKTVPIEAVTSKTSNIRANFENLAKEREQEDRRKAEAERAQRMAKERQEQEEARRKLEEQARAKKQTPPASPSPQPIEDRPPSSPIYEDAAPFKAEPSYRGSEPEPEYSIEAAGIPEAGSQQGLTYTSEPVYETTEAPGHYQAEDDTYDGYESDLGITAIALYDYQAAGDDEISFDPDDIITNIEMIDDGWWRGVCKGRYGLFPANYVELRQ

Each substance was assayed against T1, eGFP-tagged human NUMB 1 (human) (UniProt P49757) (assay: affinity purification with mass spectrometry; GFP-Trap_MA beads on lysates of stable NUMB-1-eGFP MLE12 cells, with eGFP cells as control; hits enriched more than twofold, p < 0.05).
T1 sequence: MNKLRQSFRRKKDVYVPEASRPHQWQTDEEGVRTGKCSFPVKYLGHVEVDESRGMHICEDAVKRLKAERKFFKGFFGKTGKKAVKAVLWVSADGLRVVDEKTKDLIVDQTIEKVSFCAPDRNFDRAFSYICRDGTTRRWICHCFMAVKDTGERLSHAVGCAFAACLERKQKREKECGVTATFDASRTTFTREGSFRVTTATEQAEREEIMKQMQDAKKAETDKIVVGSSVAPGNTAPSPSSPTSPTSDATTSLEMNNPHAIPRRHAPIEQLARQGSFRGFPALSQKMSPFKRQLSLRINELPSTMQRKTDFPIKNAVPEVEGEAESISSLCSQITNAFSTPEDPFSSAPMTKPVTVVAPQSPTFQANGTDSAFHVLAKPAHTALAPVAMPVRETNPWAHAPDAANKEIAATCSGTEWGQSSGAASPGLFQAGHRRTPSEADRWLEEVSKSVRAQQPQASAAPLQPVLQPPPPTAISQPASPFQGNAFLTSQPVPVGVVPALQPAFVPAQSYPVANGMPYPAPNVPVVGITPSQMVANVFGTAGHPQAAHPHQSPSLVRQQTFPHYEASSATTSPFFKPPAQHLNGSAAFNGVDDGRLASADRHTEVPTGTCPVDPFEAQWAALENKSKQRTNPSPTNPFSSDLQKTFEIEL

| binding | Substance |
| --- | --- |
| binds | casein kinase 2 α subunit (from UniProt Q60737 1-391) (enzyme) |
| binds | casein kinase 2 β subunit (from UniProt P67871 1-215) |
| binds | cortactin (from UniProt Q60598 1-546) |
